Laboratory results reported in patent US20260146103A1 (J DAVID GLADSTONE INSTITUTES A TESTAMENTARY TRUST …, published 2026).
These are yes or no findings as the source states them, for the method shown. Some results given as binding are weak or reduced against the parent protein; the word gives no strength.

Amino acid sequences for entries named in this document (tags omitted). A change or cut given only in a name is not applied to a line headed by its entry.
UniProt P02671: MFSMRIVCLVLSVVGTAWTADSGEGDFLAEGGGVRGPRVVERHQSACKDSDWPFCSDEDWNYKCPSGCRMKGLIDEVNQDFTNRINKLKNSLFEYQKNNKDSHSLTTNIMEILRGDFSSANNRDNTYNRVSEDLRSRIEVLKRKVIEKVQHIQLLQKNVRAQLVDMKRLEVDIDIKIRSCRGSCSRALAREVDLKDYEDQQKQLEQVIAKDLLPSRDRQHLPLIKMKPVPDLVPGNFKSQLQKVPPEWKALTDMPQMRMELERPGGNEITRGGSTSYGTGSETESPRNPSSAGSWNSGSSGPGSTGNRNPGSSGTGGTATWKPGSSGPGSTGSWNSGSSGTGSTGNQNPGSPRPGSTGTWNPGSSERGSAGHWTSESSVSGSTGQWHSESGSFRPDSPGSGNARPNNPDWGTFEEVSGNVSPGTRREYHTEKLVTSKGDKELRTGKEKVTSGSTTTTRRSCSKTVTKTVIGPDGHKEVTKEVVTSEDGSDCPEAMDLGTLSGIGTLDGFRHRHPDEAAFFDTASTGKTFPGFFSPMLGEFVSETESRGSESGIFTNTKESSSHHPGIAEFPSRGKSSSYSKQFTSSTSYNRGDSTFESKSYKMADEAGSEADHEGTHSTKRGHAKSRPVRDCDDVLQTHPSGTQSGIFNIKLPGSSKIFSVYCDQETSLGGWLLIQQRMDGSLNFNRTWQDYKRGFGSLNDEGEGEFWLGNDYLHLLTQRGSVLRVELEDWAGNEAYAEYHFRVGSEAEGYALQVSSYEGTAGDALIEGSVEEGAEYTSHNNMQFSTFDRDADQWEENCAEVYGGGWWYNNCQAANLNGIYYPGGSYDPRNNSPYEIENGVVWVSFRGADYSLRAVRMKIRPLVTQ

How the values were obtained:
P2 peptide (…) = assay: method not described
[1] = target: T1, fibrin(ogen) in the spinal cord of EAE mice (mouse) (UniProt E9PV24); assay: immunohistochemistry of MOG35-55 EAE mouse spinal cord sections, Antibody G 0.4 mg/ml
T1 sequence (looked up) 1: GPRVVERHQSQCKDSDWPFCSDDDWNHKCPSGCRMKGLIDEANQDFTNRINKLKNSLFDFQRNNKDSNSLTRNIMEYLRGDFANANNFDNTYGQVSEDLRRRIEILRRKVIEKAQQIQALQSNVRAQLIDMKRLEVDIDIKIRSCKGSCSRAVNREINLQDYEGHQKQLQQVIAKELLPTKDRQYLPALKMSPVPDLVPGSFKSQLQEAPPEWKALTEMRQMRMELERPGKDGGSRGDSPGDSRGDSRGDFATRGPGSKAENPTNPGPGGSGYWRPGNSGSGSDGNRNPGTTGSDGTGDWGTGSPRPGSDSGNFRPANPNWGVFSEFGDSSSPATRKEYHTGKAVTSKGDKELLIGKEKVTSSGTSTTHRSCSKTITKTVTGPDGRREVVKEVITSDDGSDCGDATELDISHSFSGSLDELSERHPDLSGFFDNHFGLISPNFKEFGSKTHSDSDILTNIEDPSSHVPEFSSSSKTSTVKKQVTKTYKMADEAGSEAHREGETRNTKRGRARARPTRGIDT
T1 sequence (looked up) 2: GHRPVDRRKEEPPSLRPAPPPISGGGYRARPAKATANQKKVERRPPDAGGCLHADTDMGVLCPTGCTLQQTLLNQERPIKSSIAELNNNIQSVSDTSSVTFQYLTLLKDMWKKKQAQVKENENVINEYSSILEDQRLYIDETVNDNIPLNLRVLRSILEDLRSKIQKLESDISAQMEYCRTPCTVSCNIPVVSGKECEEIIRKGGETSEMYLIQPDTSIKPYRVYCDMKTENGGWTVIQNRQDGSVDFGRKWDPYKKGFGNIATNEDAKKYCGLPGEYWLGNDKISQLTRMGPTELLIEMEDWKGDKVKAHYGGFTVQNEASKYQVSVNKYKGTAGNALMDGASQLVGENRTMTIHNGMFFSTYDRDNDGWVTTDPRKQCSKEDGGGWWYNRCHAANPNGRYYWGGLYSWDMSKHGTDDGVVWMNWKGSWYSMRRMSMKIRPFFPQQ
T1 sequence (looked up) 3: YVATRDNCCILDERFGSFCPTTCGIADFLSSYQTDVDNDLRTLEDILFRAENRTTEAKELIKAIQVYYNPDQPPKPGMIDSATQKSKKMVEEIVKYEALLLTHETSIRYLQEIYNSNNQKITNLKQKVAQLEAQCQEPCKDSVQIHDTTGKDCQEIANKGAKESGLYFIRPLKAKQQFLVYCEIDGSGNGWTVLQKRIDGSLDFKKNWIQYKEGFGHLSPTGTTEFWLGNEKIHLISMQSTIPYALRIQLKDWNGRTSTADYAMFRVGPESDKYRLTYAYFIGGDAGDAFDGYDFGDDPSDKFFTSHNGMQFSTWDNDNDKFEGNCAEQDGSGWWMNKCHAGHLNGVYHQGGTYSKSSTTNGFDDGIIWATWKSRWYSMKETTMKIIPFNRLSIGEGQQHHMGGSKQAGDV

[2] = target: T1, fibrin(ogen) in the spinal cord of EAE mice (mouse); assay: double immunofluorescence with a sheep anti-fibrin(ogen) antibody, EAE spinal cords
[3] = target: T1, fibrin(ogen) in the spinal cord of EAE mice (mouse); assay: double immunofluorescence with a sheep anti-fibrin(ogen) antibody, spinal cord sections
fibrin [4] = target: fibrin (UniProt P02671); assay: told with the fibrin polymerization assay
fibrinogen [5] = target: fibrinogen (UniProt P02671); assay: told with the fibrin polymerization assay
fibrinogen [6] = target: fibrinogen (UniProt P02671); assay: ELISA, plates coated with fibrinogen
[7] = target: T1, fibrin(ogen) in the spinal cord of EAE mice (mouse); assay: biotinylated Antibody G injected i.p. in MOG35-55 EAE mice; sections stained with streptavidin and sheep anti-fibrinogen antibody
fibrin [8] = target: fibrin (UniProt P02671); assay: ELISA, plates coated with fibrin

Measured: binding

B1: Antibody G (45-C1C3) (antibody, V domains shown)
VH: EVQLVESGGGAVQPGRSLRLSCAASGVSFSNIGMHWVRQAPGKGLEWVALISSDGRHTHYADSVKGRFTISRDNSENTLYLQINGLRADDTAVYYCAKGLDTRARYMGKFYTFDYWGQGTLVTVSS
VL: DIQLTQSPSSLSASVGDRVTITCRASQNIGVNLNWYQQRPGKGPKLLVSSTFSLQSGVPSRFSASGAGTNFTLTISSLQPEDYVTYYCQQSYSSPFTFGPGTKVDIK
notes: also called mAb G; Ab G
binds: all assays above
